This is an account of results in paper PMC7140450.

The chains behind the UniProt entries cited, without tags or fusion partners.
UniProt P09936: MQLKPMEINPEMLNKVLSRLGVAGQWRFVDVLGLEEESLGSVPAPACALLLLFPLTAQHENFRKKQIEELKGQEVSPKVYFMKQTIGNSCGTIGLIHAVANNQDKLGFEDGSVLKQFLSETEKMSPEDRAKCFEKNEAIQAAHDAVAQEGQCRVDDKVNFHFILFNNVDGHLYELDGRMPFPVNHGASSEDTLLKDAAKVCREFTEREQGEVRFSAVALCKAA
UniProt Q14247: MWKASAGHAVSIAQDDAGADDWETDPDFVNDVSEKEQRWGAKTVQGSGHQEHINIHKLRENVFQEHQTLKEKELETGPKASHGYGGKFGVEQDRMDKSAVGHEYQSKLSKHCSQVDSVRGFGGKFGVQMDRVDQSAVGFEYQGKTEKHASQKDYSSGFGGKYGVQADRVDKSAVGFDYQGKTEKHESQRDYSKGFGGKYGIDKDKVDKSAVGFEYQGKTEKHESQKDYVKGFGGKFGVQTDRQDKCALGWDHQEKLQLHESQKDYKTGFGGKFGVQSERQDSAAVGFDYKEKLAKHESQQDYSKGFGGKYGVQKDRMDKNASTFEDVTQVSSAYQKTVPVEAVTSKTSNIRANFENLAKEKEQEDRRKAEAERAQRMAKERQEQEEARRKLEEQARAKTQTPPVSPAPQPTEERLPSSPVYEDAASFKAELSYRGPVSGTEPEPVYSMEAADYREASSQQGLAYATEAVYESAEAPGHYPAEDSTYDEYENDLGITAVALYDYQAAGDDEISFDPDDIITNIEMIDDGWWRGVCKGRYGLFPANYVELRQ

Results are given in words; binding and its absence hold for the method and conditions named. Binding seen in cells or lysates may run through a third protein. Some results given as binding are weak or reduced against the parent protein; the word gives no strength.

Test [1] has as its target endogenous UCHL1 of NP69 cells (human (endogenous in NP69)) (UniProt P09936). Briefly: co-IP; endogenous proteins in NP69 cells; IP with anti-UCHL1 (IgG control) overnight at 4 °C, magnetic beads, immunoblot with anti-UCHL1 and anti-CTTN.
For test [2], the target named is FLAG-tagged UCHL1 (ubiquitin C-terminal hydrolase L1) (UniProt P09936). In words: co-IP; SUNE1 cells transfected with FLAG-UCHL1; IP with anti-FLAG (IgG control) overnight at 4 °C, magnetic beads, immunoblot for endogenous CTTN.

With “endogenous CTTN (cortactin) of NP69 cells (from UniProt Q14247 1-550)”, in test [1], the binding result was “binds”. Regarding “endogenous CTTN (cortactin) of SUNE1 cells (from UniProt Q14247 1-550)”, the binding result in test [2] is “binds”.
